The supplement of paper PMC7661543
Differences between knockout arms are mostly noise.

Test system: MDA-MB-231
Assay: relative cell number vs DMSO control (72 h) (% of DMSO); higher = less growth inhibition (more cells)
Protocol: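 QMAP-Seq: a pool of 5 breast cancer cell lines (ZR-75-1, SKBR3, HCC-38, MDA-MB-231, BT-20), each carrying 12 doxycycline-inducible Cas9 sgRNA perturbations (11 knockouts plus non-targeting sgNT), was treated with compounds for 72 h at four 10-fold doses (10 nM-10 uM or 1 nM-1 uM range). Barcodes were amplified and sequenced, and cell number was interpolated from 293T spike-in standard curves. The result is expressed as % of the median of DMSO wells. Two biological replicates.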

CCC(C)(C)C(=O)O[C@H]1C[C@@H](C)C=C2C=C[C@H](C)[C@H](CC[C@@H]3C[C@@H](O)CC(=O)O3)[C@H]21 [Simvastatin]
Settings	relative cell number
sgRNA knockout: sgATF3, 10 nM	89.1
sgRNA knockout: sgATF3, 100 nM	92.4
sgRNA knockout: sgATF3, 1000 nM	96.9
sgRNA knockout: sgATF3, 10000 nM	33.8
sgRNA knockout: sgATF4, 10 nM	97.1
sgRNA knockout: sgATF4, 100 nM	96
sgRNA knockout: sgATF4, 1000 nM	110
sgRNA knockout: sgATF4, 10000 nM	26.3
sgRNA knockout: sgATF6, 10 nM	109
sgRNA knockout: sgATF6, 100 nM	100
sgRNA knockout: sgATF6, 1000 nM	96.6
sgRNA knockout: sgATF6, 10000 nM	25.7
sgRNA knockout: sgATG7, 10 nM	93.2
sgRNA knockout: sgATG7, 100 nM	85.4
sgRNA knockout: sgATG7, 1000 nM	83.8
sgRNA knockout: sgATG7, 10000 nM	32
sgRNA knockout: sgERN1, 10 nM	93
sgRNA knockout: sgERN1, 100 nM	87.3
sgRNA knockout: sgERN1, 1000 nM	96.5
sgRNA knockout: sgERN1, 10000 nM	38.55
sgRNA knockout: sgHSF1, 10 nM	83.6
sgRNA knockout: sgHSF1, 100 nM	85.6
sgRNA knockout: sgHSF1, 1000 nM	85.6
sgRNA knockout: sgHSF1, 10000 nM	35.4
sgRNA knockout: sgHSF2, 10 nM	87.5
sgRNA knockout: sgHSF2, 100 nM	105.3
sgRNA knockout: sgHSF2, 1000 nM	94.06
sgRNA knockout: sgHSF2, 10000 nM	22.9
sgRNA knockout: sgKEAP1, 10 nM	101
sgRNA knockout: sgKEAP1, 100 nM	94.1
sgRNA knockout: sgKEAP1, 1000 nM	94.9
sgRNA knockout: sgKEAP1, 10000 nM	39.7
sgRNA knockout: sgNFE2L2, 10 nM	79.4
sgRNA knockout: sgNFE2L2, 100 nM	98.9
sgRNA knockout: sgNFE2L2, 1000 nM	84
sgRNA knockout: sgNFE2L2, 10000 nM	30.3
sgRNA knockout: sgSLC35F2, 10 nM	90.9
sgRNA knockout: sgSLC35F2, 100 nM	79.3
sgRNA knockout: sgSLC35F2, 1000 nM	89.7
sgRNA knockout: sgSLC35F2, 10000 nM	31.9
sgRNA knockout: sgXBP1, 10 nM	82.3
sgRNA knockout: sgXBP1, 100 nM	103
sgRNA knockout: sgXBP1, 1000 nM	78.7
sgRNA knockout: sgXBP1, 10000 nM	33.1

COC(=O)/C=C/C(=O)OC [DimethylFumarate]
Settings	relative cell number
sgRNA knockout: sgATF3, 10 nM	87.6
sgRNA knockout: sgATF3, 100 nM	108
sgRNA knockout: sgATF3, 1000 nM	102
sgRNA knockout: sgATF3, 10000 nM	104
sgRNA knockout: sgATF4, 10 nM	99.25
sgRNA knockout: sgATF4, 100 nM	94.7
sgRNA knockout: sgATF4, 1000 nM	109
sgRNA knockout: sgATF4, 10000 nM	74.9
sgRNA knockout: sgATF6, 10 nM	106
sgRNA knockout: sgATF6, 100 nM	101
sgRNA knockout: sgATF6, 1000 nM	112
sgRNA knockout: sgATF6, 10000 nM	86.2
sgRNA knockout: sgATG7, 10 nM	111
sgRNA knockout: sgATG7, 100 nM	105
sgRNA knockout: sgATG7, 1000 nM	89.2
sgRNA knockout: sgATG7, 10000 nM	96.9
sgRNA knockout: sgERN1, 10 nM	94
sgRNA knockout: sgERN1, 100 nM	93.3
sgRNA knockout: sgERN1, 1000 nM	87.8
sgRNA knockout: sgERN1, 10000 nM	88.1
sgRNA knockout: sgHSF1, 10 nM	79.1
sgRNA knockout: sgHSF1, 100 nM	90.3
sgRNA knockout: sgHSF1, 1000 nM	102
sgRNA knockout: sgHSF1, 10000 nM	108
sgRNA knockout: sgHSF2, 10 nM	90.5
sgRNA knockout: sgHSF2, 100 nM	90.4
sgRNA knockout: sgHSF2, 1000 nM	95.9
sgRNA knockout: sgHSF2, 10000 nM	72.5
sgRNA knockout: sgKEAP1, 10 nM	78.9
sgRNA knockout: sgKEAP1, 100 nM	79.5
sgRNA knockout: sgKEAP1, 1000 nM	87.7
sgRNA knockout: sgKEAP1, 10000 nM	96.8
sgRNA knockout: sgNFE2L2, 10 nM	80.6
sgRNA knockout: sgNFE2L2, 100 nM	103
sgRNA knockout: sgNFE2L2, 1000 nM	84.5
sgRNA knockout: sgNFE2L2, 10000 nM	103
sgRNA knockout: sgSLC35F2, 10 nM	102
sgRNA knockout: sgSLC35F2, 100 nM	91.8
sgRNA knockout: sgSLC35F2, 1000 nM	109
sgRNA knockout: sgSLC35F2, 10000 nM	94.7
sgRNA knockout: sgXBP1, 10 nM	93.1
sgRNA knockout: sgXBP1, 100 nM	89.91
sgRNA knockout: sgXBP1, 1000 nM	81.9
sgRNA knockout: sgXBP1, 10000 nM	94.9

C=C(C)[C@@H]1CC[C@]2(C(=O)O)CC[C@]3(C)[C@H](CC[C@@H]4[C@@]5(C)CC[C@H](O)C(C)(C)[C@@H]5CC[C@]43C)[C@@H]12 [BetulinicAcid]
Settings	relative cell number
sgRNA knockout: sgATF3, 10 nM	97.4
sgRNA knockout: sgATF3, 100 nM	102
sgRNA knockout: sgATF3, 1000 nM	101
sgRNA knockout: sgATF3, 10000 nM	108
sgRNA knockout: sgATF4, 10 nM	78.8
sgRNA knockout: sgATF4, 100 nM	84.6
sgRNA knockout: sgATF4, 1000 nM	96
sgRNA knockout: sgATF4, 10000 nM	96.6
sgRNA knockout: sgATF6, 10 nM	91.4
sgRNA knockout: sgATF6, 100 nM	88.3
sgRNA knockout: sgATF6, 1000 nM	114
sgRNA knockout: sgATF6, 10000 nM	113
sgRNA knockout: sgATG7, 10 nM	100
sgRNA knockout: sgATG7, 100 nM	105
sgRNA knockout: sgATG7, 1000 nM	72.6
sgRNA knockout: sgATG7, 10000 nM	110.5
sgRNA knockout: sgERN1, 10 nM	121
sgRNA knockout: sgERN1, 100 nM	97.8
sgRNA knockout: sgERN1, 1000 nM	89.9
sgRNA knockout: sgERN1, 10000 nM	102
sgRNA knockout: sgHSF1, 10 nM	82.3
sgRNA knockout: sgHSF1, 100 nM	90.4
sgRNA knockout: sgHSF1, 1000 nM	78.8
sgRNA knockout: sgHSF1, 10000 nM	108
sgRNA knockout: sgHSF2, 10 nM	91.4
sgRNA knockout: sgHSF2, 100 nM	83.5
sgRNA knockout: sgHSF2, 1000 nM	88
sgRNA knockout: sgHSF2, 10000 nM	101
sgRNA knockout: sgKEAP1, 10 nM	117
sgRNA knockout: sgKEAP1, 100 nM	94
sgRNA knockout: sgKEAP1, 1000 nM	78.1
sgRNA knockout: sgKEAP1, 10000 nM	109
sgRNA knockout: sgNFE2L2, 10 nM	81.5
sgRNA knockout: sgNFE2L2, 100 nM	93.4
sgRNA knockout: sgNFE2L2, 1000 nM	97.5
sgRNA knockout: sgNFE2L2, 10000 nM	104
sgRNA knockout: sgSLC35F2, 10 nM	103
sgRNA knockout: sgSLC35F2, 100 nM	98.7
sgRNA knockout: sgSLC35F2, 1000 nM	106
sgRNA knockout: sgSLC35F2, 10000 nM	97.5
sgRNA knockout: sgXBP1, 10 nM	106
sgRNA knockout: sgXBP1, 100 nM	95.4
sgRNA knockout: sgXBP1, 1000 nM	108
sgRNA knockout: sgXBP1, 10000 nM	110
